Assay results from US20160166581A1 (priority 2014, published 2016).

How the values were obtained:
[1] = test system: obese domestic cats with diabetes; settings: individual diabetic cats #1-#5 on glargine insulin; 1.25 mg donepezil orally daily, 14 day period
Method: Five obese domestic cats with diabetes (average weight 14.2 lbs.) are on glargine insulin for glycemic control. […] All cats are being treated with glargine insulin in bid dosing schedule. […] Over a 14 day period morning blood glucose levels (prior to feeding) are recorded.

[2] = test system: horses with physical characteristics of EMS
[3] = 4 EMS horses, 4 week treatment 75 mg daily

Q: For `COc1cc2c(cc1OC)C(=O)C(CC1CCN(Cc3ccccc3)CC1)C2` (stereo not drawn) [donepezil], which “Morning blood glucose levels (prior to feeding) during treatment” value [1] is on record?
A: 108 to 126 mg/dL

Q: What about the “Hypoglycemic symptoms (sweating, agitation) after insulin” value ([2]; 4 EMS horses after 4 weeks 75 mg daily, 0.1 IU/kg IV insulin) of the same compound?
A: No hypoglycemic symptoms are observed

Q: What about the “Behavior of animals or feeding habits” value ([2]; 4 EMS horses, 75 mg daily for 4 weeks) of the same compound?
A: No changes are observed

Q: And the “Fasting blood glucose levels decreased on average” value [2, 3]?
A: 25%

Q: And the “Insulin sensitivity increased on average” value [2, 3]?
A: 52%

Q: And the “Insulin sensitivity (in words)” value ([2]; after 4 week treatment)?
A: significantly improved
